Assay results reported in US10969396B2, “In vitro method, use of an agent and collection device for the inhibition of coagulation in blood” (priority 2013, dated 2021).

Key:
lymphocytes (LYMPHO) = lymphocytes (LYMPHO) determination; design: species or system human; details: Example 3; whole blood; N 48
mean corpuscular volume = mean corpuscular volume (MCV), full blood cell count; design: species or system human; details: Example 28, Table 1; n = 10

SMILES | LYMPHO Mean (lymphocytes (LYMPHO)) [%] | MCV (mean corpuscular volume) [fL]
O=C(O)CC(O)(CC(=O)O)C(=O)O [CA, Citric acid monohydrate] | 32.05 | 93.0
O=C(O)c1c(C(=O)O)c(C(=O)O)c(C(=O)O)c(C(=O)O)c1C(=O)O [MELA, mellitic acid] |  | 94.5
O=C([O-])CN(CCN(CC(=O)[O-])CC(=O)O)CC(=O)[O-].[K+].[K+].[K+] [K3EDTA (BD), tripotassium EDTA, reference compound] | 32.000 | 92.1
O=C(O)CN(CCN(CC(=O)O)CC(=O)O)CCN(CC(=O)O)CC(=O)O [DTPA, diethylenetriaminepentaacetic acid] |  | 93.6
O=C(O)c1cc(C(=O)O)c(C(=O)O)c(C(=O)O)c1C(=O)O [BPCA, benzenepentacarboxylic acid] |  | 101
O=C(O)CN(CCN(CC(=O)O)CC(=O)O)CC(=O)O [EDTA, ethylenediaminetetraacetic acid] |  | 94.4
O=C(O)C1OC(C(=O)O)C(C(=O)O)C1C(=O)O (stereo not shown) [THTCA, Tetrahydrofuran-2,3,4,5-tetracarboxylic acid] |  | 96.0
O=C(O)CC(CC(=O)O)C(=O)O [TCA, tricarballylic acid] |  | 96.7
